This data set can be described thus: self-splicing fitness, log relative to wild type (ln ratio); higher = more splicing; Tetrahymena group I intron in knt gene, E. coli kanamycin selection, DiMSum; sequences stand for … in CUCUCU…GGAGGGAAAAGUUAUCAGGCAUGCACCUGGUAGCUAGUCUUUAAACCAAUAGAUUGCAUCGGUUUAAAAGGCAAGACCGUCAAAUUGCGGGAAAGGGGUCAACAGCCGUUCAGUACCAAGUCUCAGGGGAAACUUUGAGAUGGCCUUGCAAAGGGUAUGGUAAUAAGCUGACGGACAUGGUCCUAACCACGCAGCCAAGUCCUAAGUCAACAGAUCUUCUGUUGAUAUGGAUGCAGUUCACAGACUAAAUGUCGGUCGGGGAAGAUGUAUUCUUCUCAUAAGAUAUAGUCGGACCUCUCCUUAAUGGGAGCUAGCGGAUGAAGUGAUGCAACACUGGAGCCGCUGGGAACUAAUUUGUAUGCGAAAGUAUAUUGAUUAGUUUUGGAGUACUCGUGGUCG
An outline of the steps:
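A randomised library covering all eight P1ex-region intron nucleotides was built with the intron in the knt kanamycin-resistance gene on pET-22b(+) and held in E. coli BL21(DE3). Cells were grown overnight at 37°C or 30°C on LB agar, with or without 25 μg/mL kanamycin, plus 100 μg/mL carbenicillin, 50 μM IPTG and 0.2% rhamnose, and pooled colonies were amplicon-sequenced on an Illumina HiSeq 2500. DiMSum fitness is the error-weighted combination of wild-type-normalised replicate fold changes, kanamycin versus none.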

± gives the uncertainty stated by the source. Many of these values have a large error.

We go through 45 sequences from the supplement of paper PMC7877785.

With CCCGAGCAAUAUUACGACUA, the “self-splicing fitness (ln)” value (37 °C) is -3.08 ± 1.1.

As to ACGAAGCAAUAUUACGGGAC, the “self-splicing fitness (ln)” value (30 °C) was -4.36 ± 0.24 and the “self-splicing fitness (ln)” value (37 °C) was -2.68 ± 0.18. For UACGAGCAAUAUUACGAAGG, in that order: -4.01 ± 0.6 and -0.765 ± 0.3. As for UACAAGCAAUAUUACGUCCU, the “self-splicing fitness (ln)” value (30 °C) was -1.16 ± 0.1 and the “self-splicing fitness (ln)” value (37 °C) came to 0.292 ± 0.15. Turning to UUCAAGCAAUAUUACGCAAC, where the note is “30 °C”, the “self-splicing fitness (ln)” value was -3.92 ± 0.52.

On to GGAAAGCAAUAUUACGGCAU, for which the “self-splicing fitness (ln)” value is -1.03 ± 0.13 (30 °C) and -0.672 ± 0.15 (37 °C). UUUGAGCAAUAUUACGAAUU: the “self-splicing fitness (ln)” value reads like this: (30 °C) -2.47 ± 0.23; (37 °C) -2.01 ± 0.3. In the case of GUGAAGCAAUAUUACGCCAC, the “self-splicing fitness (ln)” value (37 °C) is -2.03 ± 0.81.

As to AACAAGCAAUAUUACGAGGG, the “self-splicing fitness (ln)” value (30 °C) was -3 ± 0.11 and the “self-splicing fitness (ln)” value (37 °C) is -1.35 ± 0.15.

On to UUAUAGCAAUAUUACGAAGA, for which the “self-splicing fitness (ln)” value (30 °C) is -2.71 ± 0.63. Consider CGCUAGCAAUAUUACGAAGA, for which, where the note is “37 °C”, the “self-splicing fitness (ln)” value was -2.31 ± 0.63. Turning to GUUUAGCAAUAUUACGAGAA, the “self-splicing fitness (ln)” value (30 °C) is -1.94 ± 0.52 and the “self-splicing fitness (ln)” value (37 °C) is -2.36 ± 0.5.

As for GCGAAGCAAUAUUACGGCUU, the “self-splicing fitness (ln)” value (37 °C) is -3.23 ± 1.

On to UCCGAGCAAUAUUACGUCCC, for which the “self-splicing fitness (ln)” value (30 °C) is -3.83 ± 1 and the “self-splicing fitness (ln)” value (37 °C) was -1.71 ± 0.54.

For the sequence UCGGAGCAAUAUUACGAGCU, the “self-splicing fitness (ln)” value (37 °C) is -2.2 ± 0.56. With AGGUAGCAAUAUUACGAGCC, the “self-splicing fitness (ln)” value by setting is: (30 °C) -0.991 ± 0.021; (37 °C) -0.862 ± 0.037. For UAUUAGCAAUAUUACGCCAU, the “self-splicing fitness (ln)” value (30 °C) is -4.14 ± 0.6. As to CUAAAGCAAUAUUACGACCC, where the note is “37 °C”, the “self-splicing fitness (ln)” value is -1.33 ± 1.2. Same read-out and setting: the same measure for UGUGAGCAAUAUUACGUCCC: -1.03 ± 0.66. As to CAUAAGCAAUAUUACGCAUC, where the note is “30 °C”, the “self-splicing fitness (ln)” value was -2.91 ± 0.75.

In the case of CACUAGCAAUAUUACGCAGG, the “self-splicing fitness (ln)” value (30 °C) was -3.27 ± 0.12 and the “self-splicing fitness (ln)” value (37 °C) is -1.26 ± 0.15. For UGAGAGCAAUAUUACGAGCU, the “self-splicing fitness (ln)” value (30 °C) was -3.28 ± 0.53. As for UAGCAGCAAUAUUACGCAUC, the “self-splicing fitness (ln)” value (30 °C) is -4.15 ± 0.47 and the “self-splicing fitness (ln)” value (37 °C) was -3.39 ± 0.26.

With UAGUAGCAAUAUUACGCUGC, the “self-splicing fitness (ln)” value was -3.1 ± 0.65 (30 °C) and -1.28 ± 0.51 (37 °C). As to GCAGAGCAAUAUUACGGACG, the “self-splicing fitness (ln)” value (30 °C) was -4.09 ± 0.6. As for UUGGAGCAAUAUUACGGGUU, the “self-splicing fitness (ln)” value by setting is: (30 °C) -4.04 ± 0.6; (37 °C) -2.64 ± 1.1. With CUGUAGCAAUAUUACGGACC, under “37 °C”, the “self-splicing fitness (ln)” value is -2.19 ± 0.63. For GACAAGCAAUAUUACGGAUG, the “self-splicing fitness (ln)” value is -2.92 ± 0.11 (30 °C) and -1.75 ± 0.12 (37 °C). UAUGAGCAAUAUUACGGCUU: the “self-splicing fitness (ln)” value (30 °C) was -3.3 ± 0.5. On the same count and under the same terms, then AAUUAGCAAUAUUACGACCC, with -0.488 ± 0.53.

As for GACGAGCAAUAUUACGAACG, the “self-splicing fitness (ln)” value (37 °C) was -1.03 ± 0.93. Turning to AUGAAGCAAUAUUACGCACU, the “self-splicing fitness (ln)” value turned out to be 0.079 ± 0.14 (30 °C) and 0.992 ± 0.22 (37 °C). For UCGGAGCAAUAUUACGGAGU, in that order: -4.04 ± 1.1 and -2.44 ± 0.78. In the same order, the values of GCAUAGCAAUAUUACGUAAA are -2.43 ± 0.074 and -1.05 ± 0.08.

Turning to GGAGAGCAAUAUUACGUAAU, the “self-splicing fitness (ln)” value (30 °C) was -3.75 ± 0.59. UAGAAGCAAUAUUACGGAGC: the “self-splicing fitness (ln)” value (30 °C) is -4.4 ± 0.72. Turning to GUCUAGCAAUAUUACGGCGG, the “self-splicing fitness (ln)” value runs as follows: (30 °C) -2.66 ± 0.42; (37 °C) -2.32 ± 0.4.

Consider CUACAGCAAUAUUACGCUUG, for which the “self-splicing fitness (ln)” value runs as follows: (30 °C) -2.37 ± 0.15; (37 °C) -2.26 ± 0.16.

As to GGAGAGCAAUAUUACGACCG, the “self-splicing fitness (ln)” value runs as follows: (30 °C) -2.6 ± 0.59; (37 °C) -1.98 ± 1.1.

As to UAUGAGCAAUAUUACGAAAC, under “37 °C”, the “self-splicing fitness (ln)” value was -2.84 ± 0.53. Take UGAGAGCAAUAUUACGCGGU: the “self-splicing fitness (ln)” value runs as follows: (30 °C) -3.43 ± 1; (37 °C) -0.929 ± 0.39.

Regarding UGUCAGCAAUAUUACGGCGC, the “self-splicing fitness (ln)” value (30 °C) was -2.76 ± 0.21 and the “self-splicing fitness (ln)” value (37 °C) is -1.65 ± 0.19. For UACCAGCAAUAUUACGCGCC, in that order: -1.46 ± 0.12 and -1.1 ± 0.2. With CGCCAGCAAUAUUACGUCCC, the “self-splicing fitness (ln)” value (37 °C) was -2.37 ± 0.49.

Turning to GAAGAGCAAUAUUACGGAGU, the “self-splicing fitness (ln)” value was -3.07 ± 0.46 (30 °C) and -2.47 ± 0.45 (37 °C).
